Source: the supplement of paper PMC9015667
Counter-ions that a name gives are not always drawn. This is one part of the list. Many values rest on one well or one pass, so single values are uncertain.

test system: M229P (parental melanoma line); assay: reduction in cell viability relative to untreated/vehicle; higher = more growth inhibition; conditions: 200 nM; 72 h

SMILES | reduction in cell viability
CC(C)[C@H](C(=O)Nc1ccc(C(=O)NO)cc1)c1ccccc1 | 10.5%
Cc1cn[nH]c1 [Fomepizole] | < 0%
CC(C)NCC(O)c1ccc(O)c(O)c1 (stereo not drawn) [Isoproterenol] | < 0%
Cc1ccc(NC(=O)C2(c3ccc4c(c3)OC(F)(F)O4)CC2)nc1-c1cccc(C(=O)O)c1 [Lumacaftor] | < 0%
CCOc1cc(N2CCC(O)CC2)ccc1Nc1ncc2c(n1)N(C)c1ccccc1C(=O)N2C | < 0%
Clc1ccc(CCC(Cn2ccnc2)Sc2c(Cl)cccc2Cl)cc1 (stereo not drawn) [Butoconazole nitrate] | < 0%
COc1ccc(C2CC(c3ccccc3)=NN2c2ccc(S(N)(=O)=O)cc2)cc1 (stereo not drawn) | < 0%
O=c1[nH]nc(OCCCc2ccc(Cl)cc2)c(NCc2cccnc2)c1Br [Parogrelil] | < 0%
COc1cc(N2CCC(N3CCN(C)CC3)CC2)ccc1Nc1ncnc(Nc2ccccc2S(=O)(=O)C(C)C)n1 | < 0%
C[C@H](NCc1ccc2c(c1)nc(NC(=O)c1ccc(-c3cn[nH]c3)s1)n2CCc1ccccc1)C(C)(C)C | 73.2%
Nc1nc(OCc2ccccc2)c2nc[nH]c2n1 [O6-Benzylguanine] | < 0%
CC1(C)OC2=C(C(=O)c3ccccc3C2=O)[C@H](NCc2ccccc2)[C@@H]1O | 0.43%
CCC(=O)O[C@]1(C(=O)CO)CC[C@H]2[C@@H]3CCC4=CC(=O)CC[C@]4(C)[C@H]3CC[C@@]21C [17 alpha-propionate] | < 0%
C=CC(=O)Nc1cccc(Oc2nc(Nc3ccc(N4CCN(C)CC4)cc3OC)ncc2Cl)c1 | < 0%
Cc1[nH]c2ccccc2c1CCNCc1ccc(/C=C/C(=O)NO)cc1 [Panobinostat (LBH589)] | 94.4%
Cc1c(-c2cccc3c(CCCOc4cccc5ccccc45)c(C(=O)O)n(Cc4cccnc4)c23)c(COc2ccc(N3CCN([S+](=O)([O-])N(C)C)CC3)cc2)nn1C | < 0%
O=C(NCc1ccccc1)c1csc(Nc2ccncn2)n1 [Thiazovivin] | < 0%

Of the compounds above, five have an NH in an aromatic ring.
SMILES | reduction in cell viability
Cc1cn[nH]c1 [Fomepizole] | < 0%
O=c1[nH]nc(OCCCc2ccc(Cl)cc2)c(NCc2cccnc2)c1Br [Parogrelil] | < 0%
C[C@H](NCc1ccc2c(c1)nc(NC(=O)c1ccc(-c3cn[nH]c3)s1)n2CCc1ccccc1)C(C)(C)C | 73.2%
Nc1nc(OCc2ccccc2)c2nc[nH]c2n1 [O6-Benzylguanine] | < 0%
Cc1[nH]c2ccccc2c1CCNCc1ccc(/C=C/C(=O)NO)cc1 [Panobinostat (LBH589)] | 94.4%

(more compounds)

SMILES | reduction in cell viability
CNc1nc(Nc2ccc(C(=O)N3CCOCC3)cc2OC)ncc1Cl | < 0%
O=C(CCCCCCC(=O)Nc1ccc([C@H]2O[C@@H](CSc3nc(-c4ccccc4)c(-c4ccccc4)o3)C[C@@H](c3ccc(CO)cc3)O2)cc1)NO [Tubacin] | 3.25%
CC1(C)CCC[C@]2(C)[C@H]3CC(=O)O[C@]3(C)CC[C@@H]12 [Sclareolide] | < 0%
N#Cc1c(O)c2c(-c3ccc(-c4ccccc4O)cc3)csc2[nH]c1=O | < 0%
O=c1[nH]c(=O)n([C@H]2C[C@H](O)[C@@H](CO)O2)cc1F [Floxuridine] | 1.09%
CN(C)CCN(Cc1ccc(Cl)cc1)c1ccccn1 [Chloropyramine hydrochloride] | < 0%
N#Cc1c(C2CCNCC2)cc(-c2c(O)cccc2OCC2CC2)nc1N [IKK-2 Inhibitor VIII] | < 0%
CN1CCN(c2ncc(-c3cc(Cl)cc(Cl)c3Cl)c(N)n2)CC1 [Sipatrigine] | < 0%
CC(=O)N1CCN(c2ccc(OCc3nn(C)c(C)c3-c3cccc4c(CCCOc5cc(C)c(Cl)c(C)c5)c(C(=O)O)n(Cc5cccnc5)c34)cc2)CC1 | < 0%
CCC1=C[C@@H]2CN(C1)Cc1c([nH]c3ccccc13)[C@@](C(=O)OC)(c1cc3c(cc1OC)N(C)[C@H]1[C@@](O)(C(=O)OC)[C@H](OC(C)=O)[C@]4(CC)C=CCN5CC[C@]31[C@@H]54)C2 [Vinorelbine tartrate] | 39.5%
CC1(C)C(N(O)C(=O)Nc2ccc(Cl)cc2)N(c2ccc(Cl)cc2)C(=O)N1CC(=O)NN=CC=Cc1ccc([N+](=O)[O-])o1 (stereo not drawn) [Eeyarestatin I] | < 0%
COc1cc2ncnc(Nc3ccc(F)c(Cl)c3)c2cc1NC(=O)/C=C/CN1CCCCC1 [Dacomitinib] | < 0%
CNC(=O)CN1CCC(Oc2cc3c(Nc4cccc(Cl)c4F)ncnc3cc2OC)CC1 [Sapitinib] | < 0%
COc1c(OCCCN2CCOCC2)ccc2c1N=C(NC(=O)c1cnc(N)nc1)N1CCN=C21 | < 0%
C=CC(=O)N1CCc2ccc(-n3c(=O)ccc4cnc5ccc(-c6cnn(C)c6)cc5c43)cc21 | < 0%
CC[C@H](/C=C/[C@@H](C)[C@H]1CC[C@H]2[C@@H]3CC=C4C[C@@H](O)CC[C@]4(C)[C@H]3CC[C@]12C)C(C)C [Stigmasterol] | < 0%
